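Whole-cell assay for inhibitors of Mycobacterium tuberculosis growth, labelled Cornell in the record; the read-out is not stated. The concentration is filed as 10 mM, unlikely as a test dose, so the dose is not known. Higher means stronger inhibition (inferred from two other growth screens of the library). Of about 53,000 compounds tested this way, about 900 (1.7%) reached 50% or more in at least one test.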

Values are the deposited “Percent Effect”, in %. The record does not define 0% and 100%; most values in the screen are far below 50% and negative numbers occur (in some assays of this library far below -100). The compounds are a random part of those screened.

O=C(O)C(F)(F)F.[H][C@@]12COC[C@]1([H])[C@H](OCc1csc(C)n1)CN2Cc1ccc(OC)cc1 gave 36.32%.
C=C(C)COc1ccccc1NC(=O)NC1CCOCC1 gave 47.3%.
COc1cccc(OCC2CCCN(C(=O)c3ncc(F)cc3F)C2)c1 (stereo not drawn) gave 5.882%.
CC(C)c1nnc(CN2CCCC(c3cc(C(N)=O)[nH]n3)C2)o1 (stereo not drawn) gave -31.83%.
CN1C(=O)CC(c2ccccc2)C12CCN(CC1CCOCC1)CC2.O=C(O)C(F)(F)F (stereo not drawn) gave 12.74%.
Cc1cc(N2CCC(n3cc(CN4CCSCC4)nn3)CC2)ccn1 gave 12.42%.
CC(C)(C)c1n[nH]cc1CNC1CCC(C(F)(F)F)CC1.Cl (stereo not drawn) gave -1.427%.
O=C(O)C1(Oc2ccc(Cl)cc2)CCN(C2CCOCC2)CC1 gave -30.01%.
[H][C@@]12CNC[C@]1([H])[C@H]2CN1CCC(c2nnc(Cn3cncn3)n2CC)CC1 gave 27.82%.
O=C1CC(N(C(=O)c2ccccc2Br)C2CC2)C(=O)N1 (stereo not drawn) gave -43.49%.
COc1ccc(S(=O)(=O)NCC(c2cccn2C)N(C)C)c(C)c1 (stereo not drawn) gave 25.09%.
Cc1cc(C2CCCN(Cc3nnc(Cc4ccccc4)o3)C2)n[nH]1 (stereo not drawn) gave -10.17%.
CCc1cnccc1C(=O)NC1CCN(Cc2ccccc2F)CC1 gave 18.05%.
CC(=O)N1CCC(Cc2cnc(Nc3cc(C)on3)cn2)CC1 gave -2.54%.
CCOCC1CCN(C(=O)Nc2ccc3c(c2)CCCN3C)C1 (stereo not drawn) gave 38.55%.
O=C(O)C(F)(F)F.[H][C@@]12OCCN(C(=O)COC)[C@@]1([H])CC[C@H]2OCc1cccnc1 gave 20.12%.
Cc1ccc(-n2cc(CN3CCOCC(CN(C)C)C3)cn2)cc1C (stereo not drawn) gave -8.941%.
Cc1noc(C)c1S(=O)(=O)NCC(C)(O)c1ccc2c(c1)OCO2 (stereo not drawn) gave -7.982%.
CCc1noc(CN(CCc2ccccc2)C2CCN(C)CC2)n1 gave -17.61%.
Cn1ccnc1CN(CCCO)C1CCCc2ccccc21 (stereo not drawn) gave -3.676%.
N#Cc1ccccc1NC(=O)C1CN(C(=O)c2ccc3c(c2)OCO3)C1 gave -26.21%.
O=C(O)CSc1nccc(-c2ccc3c(c2)OCO3)n1 gave 9.892%.
CC(O)CN1CCC(CNCc2ccc(S(C)(=O)=O)cc2)CC1 (stereo not drawn) gave -41.52%.
CCOCc1ccccc1NC(=O)NC1CCN(C2CCCC2)C1 (stereo not drawn) gave 32.54%.
Cc1nn(CC(C)C)c(N(C)C)c1CNCc1ccccc1CO gave 17.46%.
CC(C)C[C@H](NC(=O)Cn1ccc2c(Cl)cccc21)C(=O)O gave 20.3%.
O=C(O)CC1COCCN1Cc1ccccc1OCCc1ccccc1 (stereo not drawn) gave 11.65%.
O=C(COc1cccnc1)N1CCOC(C(F)(F)F)C1 (stereo not drawn) gave 27.6%.

Some entries from above, unchanged:

| SMILES | effect |
|---|---|
| `Cn1ccnc1CN(CCCO)C1CCCc2ccccc21` (stereo not drawn) | -3.676 |
| `COc1ccc(S(=O)(=O)NCC(c2cccn2C)N(C)C)c(C)c1` (stereo not drawn) | 25.09 |
| `Cc1cc(N2CCC(n3cc(CN4CCSCC4)nn3)CC2)ccn1` | 12.42 |

Data taken from ChEMBL document CHEMBL3988442, “University of Dundee, Small-Polar-MMV Screening Library” (2021).